The campaign covered roughly 320,000 compounds. About 620 (0.19%) were called active. Inconclusive results, whose numbers are uncertain, are shown with a selection of clear calls. No stated cut-off is given here; in the data, active means activation above about 80%; inconclusive means between about 30% and that limit; inactive means weaker than that.
Target: Transient receptor potential cation channel subfamily V member 1 (Homo sapiens) (UniProt Q8NER1)
Experiment: HTS Assay for Compounds that Act as Agonists of the Vanilloid Receptor 1; further: 0% is about no effect
Settings: TRPV1-expressing cells, Fluo-8 calcium influx, agonist mode; at 8.33 µM, hits give high values
Summary of the method: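 Cells expressing TRPV1 were dye-loaded with Fluo-8 and read kinetically: 10 s baseline, 3 min after compound (agonist portion), then 2 min after EC20 capsaicin (allosteric enhancer portion). Calcium-bound dye fluorescence at 480/520 nm.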

Sequences of proteins named here, by UniProt entry; tags and fusion partners are left off.
UniProt Q8NER1, whole entry, looked up: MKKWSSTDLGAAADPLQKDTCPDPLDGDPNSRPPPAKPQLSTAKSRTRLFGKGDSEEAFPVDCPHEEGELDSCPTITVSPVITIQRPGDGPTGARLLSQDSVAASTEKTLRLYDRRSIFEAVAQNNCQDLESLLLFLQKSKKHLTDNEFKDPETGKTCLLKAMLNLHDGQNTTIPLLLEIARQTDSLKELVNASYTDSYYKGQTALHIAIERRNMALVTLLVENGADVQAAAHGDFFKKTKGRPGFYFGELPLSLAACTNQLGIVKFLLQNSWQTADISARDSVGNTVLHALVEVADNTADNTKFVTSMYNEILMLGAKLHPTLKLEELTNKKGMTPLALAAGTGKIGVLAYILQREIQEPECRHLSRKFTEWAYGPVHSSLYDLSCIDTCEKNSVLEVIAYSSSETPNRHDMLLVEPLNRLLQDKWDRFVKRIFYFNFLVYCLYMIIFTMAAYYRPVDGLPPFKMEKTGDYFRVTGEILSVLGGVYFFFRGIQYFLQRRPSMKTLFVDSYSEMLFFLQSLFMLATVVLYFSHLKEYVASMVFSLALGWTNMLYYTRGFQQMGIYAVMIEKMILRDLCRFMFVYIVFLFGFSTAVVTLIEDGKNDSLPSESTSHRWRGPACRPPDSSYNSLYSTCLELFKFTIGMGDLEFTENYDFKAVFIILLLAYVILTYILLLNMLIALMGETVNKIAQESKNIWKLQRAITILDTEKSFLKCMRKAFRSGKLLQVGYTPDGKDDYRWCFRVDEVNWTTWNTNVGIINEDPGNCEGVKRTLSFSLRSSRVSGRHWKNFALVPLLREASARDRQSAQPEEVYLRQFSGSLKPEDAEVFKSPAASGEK

SMILES	activation
O=C(Cn1cncn1)NCc1ccccc1Br	inactive: -1.4%
O=C(/C=C/c1ccccc1)c1ccc2c(c1)OCCCCO2	inconclusive: 45.9%
Cc1ccc(NC(=S)c2nc3ccccc3[nH]2)c(C)c1	inconclusive: 33.1%
CC(C)N(Cc1ccccc1)C(=O)c1ccc2nsnc2c1	inconclusive: 33.8%
CCOc1ccccc1NC(=O)C(OC(=O)C1CC1)c1ccccc1 (configuration not stated)	inactive: 17.7%
O=C(Nc1cccnc1)c1ccc(Cl)c(S(=O)(=O)N2CCCCC2)c1	inconclusive: 54%
Oc1ccccc1C1NN=C(c2ccccc2)S1 (configuration not stated)	inconclusive: 45.7%
C=CCn1c(SCc2c(Cl)cccc2Cl)nnc1-c1cccnc1	inactive: 4.8%
O=C(/C=C/c1cccs1)c1ccc([N+](=O)[O-])cc1	inconclusive: 32.5%
CCOC(=O)CSc1nc(COc2ccccc2)nc2ccccc12	inconclusive: 31.1%
N#Cc1ccc(NC(=O)CCc2nc3ccccc3s2)cc1	inconclusive: 52.5%
CCOc1ccccc1NC(=O)NCCC1=CCCCC1	inconclusive: 56.3%
CC(C)(C)c1ccc(C2/C(=C(\O)c3ccc4c(c3)OCCO4)C(=O)C(=O)N2CCCN2CCOCC2)cc1 (configuration not stated)	inactive: 1.3%
CN(Cc1c(C(=O)N/N=C/c2cccc(O)c2)nnn1-c1nonc1N)C1CCCCC1	inconclusive: 79.2%
O=C(Nc1ccc(N2CCCC2)cc1)c1cccc(F)c1	inconclusive: 66.8%
CC(C)C[C@H](NC(=O)c1nc[nH]c1C(=O)NCC(=O)OCc1ccccc1)C(=O)OC(C)(C)C	inconclusive: 63.2%
COc1ccccc1-c1sc2ccccc2c1-c1ccc(Br)nc1	inactive: 1.98%
CC(Cl)C(=O)NC(=O)NC12CC3CC(CC(C3)C1)C2 (configuration not stated)	inconclusive: 40.1%
COc1ccc(N=Nc2nc3cc(Br)c(Br)cc3n2C)c(OC)c1	inconclusive: 67.6%
O=C(NC(Cc1ccccc1)C(=O)N1CCc2ccccc2C1)c1ccccc1 (configuration not stated)	inconclusive: 53.8%
O=C(NC1=NCCS1)C1COc2ccccc2O1 (configuration not stated)	inactive: -1.25%
O=c1c(-c2cnn(-c3ccccc3)c2)coc2cc(O)ccc12	inconclusive: 35.3%
COc1ccc(S(=O)(=O)N2CCOCC2)cc1NC(=O)c1cccs1	inactive: -5.19%

SMILES	activation
CCN(CC)c1ccc(S(=O)(=O)N2CCCCC2)cc1NC(=O)C1CCC1	inconclusive: 56.7%
O=C(Nc1ccc2nn(-c3ccccc3)nc2c1)c1ccc2c(c1)OCO2	inconclusive: 34.2%
CN(CC(=O)Nc1cc(S(=O)(=O)N2CCCC2)ccc1Cl)Cc1ccc2c(c1)OCO2	inconclusive: 32.1%
O=C(/C=C/c1cccc([N+](=O)[O-])c1)NCc1ccc2c(c1)OCO2	inactive: 9.84%
COc1ccc(C(=O)Nc2cccc(NC(=O)c3cccs3)c2)cc1OC	inactive: 1.03%
CN(C)c1ccc(CN(C(=O)c2cccs2)C2CCS(=O)(=O)C2)cc1 (configuration not stated)	inactive: 3.07%
COc1cc2c(cc1OC)CN(CC(=O)Nc1ccc(F)cc1)C(C(=O)O)C2 (configuration not stated)	inactive: -0.98%
O=C(Cc1ccccc1[N+](=O)[O-])NCCSCc1c(F)cccc1Cl	inconclusive: 67.4%
COc1ccc(NC(=O)CSc2nnc(-c3ccc(C)cc3)n2N)cc1	inconclusive: 32.7%
O=C(NCCc1cccnc1)c1cc(COc2ccc(F)cc2Cl)on1	inconclusive: 30.1%
CN1C(=O)CSC1=NC12CC3CC(CC(C3)C1)C2	inconclusive: 35.5%
CCOC(=O)C1(CCOc2ccccc2)CCN(Cc2cccc(OC)c2O)CC1	inactive: 20.7%
O=C1C=C(/C=C/c2ccccc2)C[C@@H](c2ccc(F)cc2)C1	inconclusive: 46.6%
O=C(C1=C[C@@H](c2ccc(Br)cc2)C[C@@H](OCCCCO)O1)N1CCN(Cc2ccccc2)CC1	inconclusive: 52.3%
O=C(c1ccc(F)cc1)N1CCN(Cc2ccccc2Br)CC1	inconclusive: 37.3%
CC(C)(C)c1ccc(SCCc2ccncc2)cc1	inconclusive: 41.3%
CCOC(=O)C1=C(O)/C(=C/c2cccc(OC)c2O)N=C1C	inactive: 1.95%
COc1ccc(C(=O)CCN2CCN(c3ccccc3F)CC2)cc1	inconclusive: 62%
O=C(CN1C(=O)/C(=C/c2ccccc2F)Sc2ccccc21)NCc1cccnc1	inconclusive: 49.7%
CCCC(=O)N/C(N)=N/c1nc2ccccc2o1	inactive: 15.8%
COc1ccc(Cl)cc1Nc1nc(-c2sc(NC(=O)C(C)(C)C)nc2C)cs1	inactive: 5.06%
O=C(Nc1ccccc1C(=O)O)c1cc(S(=O)(=O)N2CCOCC2)c(Br)s1	inactive: 2.91%
CCOC(=O)[C@H]1[C@H]2COc3ccc(Br)cc3[C@@H]2N2C(=O)c3cc(Br)ccc3NC(=O)[C@@]12C	active: 82.7%

Single values from the results shown.
Entry of `COc1ccc(C(=O)CCN2CCN(c3ccccc3F)CC2)cc1` under activation: inconclusive: 62%
Entry of `COc1cc2c(cc1OC)CN(CC(=O)Nc1ccc(F)cc1)C(C(=O)O)C2` (configuration not stated) under activation: inactive: -0.98%
Entry of `CCOC(=O)[C@H]1[C@H]2COc3ccc(Br)cc3[C@@H]2N2C(=O)c3cc(Br)ccc3NC(=O)[C@@]12C` under activation: active: 82.7%
Entry of `O=C(C1=C[C@@H](c2ccc(Br)cc2)C[C@@H](OCCCCO)O1)N1CCN(Cc2ccccc2)CC1` under activation: inconclusive: 52.3%

(continued)

SMILES	activation
Oc1c(CN2CCN(c3ccccc3)CC2)cc(Br)c2cccnc12	inactive: -1.78%
O=C(Cc1ccc(Cl)cc1)NCc1nc(-c2ccccc2)no1	inconclusive: 37.5%
O=C1CC2(CCN(C(=O)c3ccccc3Br)CC2)Oc2ccccc21	inconclusive: 73.9%
C=CCN(c1ccccc1)S(=O)(=O)c1cccc(C(=O)NC2CCN(Cc3ccccc3)CC2)c1	inconclusive: 40.4%
O=C(COC(=O)Cc1cccc(C(F)(F)F)c1)Nc1ccccc1	inconclusive: 38.3%
O=C(Nc1ccc(F)cc1)C1CC2CCC1C2 (configuration not stated)	inconclusive: 42.5%
Cc1ccccc1C1C(C#N)=C2N=C(N)c3c(sc4c3CCCCC4)N2C2=C1C(=O)CC(C)(C)C2 (configuration not stated)	inactive: 0.275%
O=C(Nc1cc(-c2nc3ccccc3s2)ccc1Cl)c1ccc2c(c1)OCO2	inactive: 19%
CCOC(=O)Cc1csc(NC(=O)c2ccc(Br)s2)n1	inconclusive: 55.5%
Cc1nc2c(-c3ccc(F)cc3)c(C)nn2c(C)c1CCC(=O)N1CCOCC1	inconclusive: 63.6%
O=C(c1ccc(C(F)(F)F)n(Cc2ccc(Cl)cc2)c1=O)N1CCOCC1	inconclusive: 42.9%
CC(C)C[C@H](NC(=O)N1CCn2c1nc1ccccc12)C(=O)N1CCCCC1	inconclusive: 54%
CCCN(CCC)C(C(=O)Nc1cccc(OC)c1)c1ccccc1 (configuration not stated)	inconclusive: 32.8%
CC(C)(C)c1ccc(OCC(=O)N/N=C/c2ccsc2)cc1	inconclusive: 44.4%
CC(C)(C)c1cc[n+](C2=C([O-])c3ccccc3C(=O)/C2=N\S(=O)(=O)c2ccccc2)cc1	inactive: 0.991%
CCCN(CCC)Cc1c(C(=O)N/N=C/c2ccoc2)nnn1-c1nonc1N	inconclusive: 51.5%
CCOC(=O)c1c(C)nc2sc3c(=O)n(-c4ccc(OC)cc4)cnc3c2c1-c1ccc(OC)cc1	inactive: 1.79%
OCC1(Cc2ccccc2)CCN(C2CCN(c3ccc(F)c(F)c3)CC2)CC1	inactive: 3.29%
CC(C)n1nc(C(=O)NC2CCCCCC2)c2ccccc2c1=O	inconclusive: 41.2%
CC(C)(CNC(=O)c1sc2cc(F)ccc2c1Cl)N1CCOCC1	inconclusive: 41.9%
CNC(=O)c1cccc(NC(=O)c2cc(-c3ccccc3)nc3c2cnn3C(C)C)c1	inconclusive: 76.4%
CC(NC(=S)NC1CCC(C(C)(C)C)CC1)c1ccccc1 (configuration not stated)	inconclusive: 73.2%
Cc1cccc(C(=O)OCC(=O)NCCCc2ccccc2)c1O	inconclusive: 39.2%

SMILES	activation
O=C(NCC(=O)N1CCN(C(c2ccccc2)c2ccccc2)CC1)c1ccc(Br)o1	inconclusive: 32.7%
O=C(Nc1ccc(F)cc1)C1CCN(c2ncnc3c2nc2n3CCCCC2)CC1	inconclusive: 50.2%
O=C(N/N=C/C(Br)=C/c1ccccc1)c1ccncc1	inconclusive: 59.5%
CCOc1ccccc1C(=O)Nc1cnn(Cc2ccc(F)cc2)c1	inconclusive: 41.9%
O=C(/C=N/O)Nc1ccc2sc3ccccc3c2c1	inconclusive: 71.7%
CNC(=O)c1[nH]cnc1C(=O)Nc1ccc(C)cc1	inactive: 4.03%
Cc1ccc(C(=O)N/N=C/c2ccoc2)cc1C	inconclusive: 64.3%
COc1ccc2c(CC(=O)N3CCN(S(=O)(=O)c4ccc(F)cc4)CC3)coc2c1	inconclusive: 37%
c1ccc2c(-c3c[nH]c4ccccc34)c3ccccc3nc2c1	inactive: 27.8%
S=C(Nc1ccc(Br)cc1)NC1CCCC1	inconclusive: 36.5%
CC(NC(=O)CN1CCN(Cc2cccc(F)c2)CC1)c1ccccc1 (configuration not stated)	inconclusive: 58.7%
CN(C1CCS(=O)(=O)C1)S(=O)(=O)c1ccccc1 (configuration not stated)	inactive: -9.09%
Cc1c(C(=O)N2CCc3ccccc3C2)oc2ccccc12	inconclusive: 32.1%
Cc1ccc(NC(=O)Nc2cccnc2)cc1Cl	inconclusive: 63.1%
COc1cccc(CN2CCN(C(=S)NCc3ccc(Cl)cc3)CC2)c1	inconclusive: 42.9%
CC(C)c1nnc(NC(=O)c2ccc3c(c2)OCO3)s1	inconclusive: 36.8%
COCCCNS(=O)(=O)c1ccc2[nH]c(=O)[nH]c2c1	inactive: -2.72%
S=c1[nH]nc(Cc2cccs2)n1-c1cccc2ccccc12	inactive: -2.93%
CC(Cc1cccs1)NC(=S)Nc1ccccc1 (configuration not stated)	inconclusive: 34.5%
CCCCC1CCC(C(=O)Nc2ccccc2)CC1 (configuration not stated)	inconclusive: 77.1%
Cc1cccc(OCC(=O)Nc2ccncc2)c1C	inactive: 23.5%
CC(=O)c1ccc(NC(=O)CCCC(=O)c2ccccc2)cc1	inconclusive: 37%
COc1ccccc1C(=O)N/C(=C/c1ccc(Br)cc1)C(=O)N1CCCC1	inconclusive: 39.5%

From PubChem BioAssay AID540275 (National Center for Advancing Translational Sciences (NCATS), 2011)
